The target of this test is KVβ1.2 subunit (UniProt Q14722). In words: co-IP.

Protein sequences, listed by entry. Tags and fused reporters are not part of them. Lines headed by an entry give the natural chain unless they say otherwise; changes in a name come on top.
UniProt Q14722: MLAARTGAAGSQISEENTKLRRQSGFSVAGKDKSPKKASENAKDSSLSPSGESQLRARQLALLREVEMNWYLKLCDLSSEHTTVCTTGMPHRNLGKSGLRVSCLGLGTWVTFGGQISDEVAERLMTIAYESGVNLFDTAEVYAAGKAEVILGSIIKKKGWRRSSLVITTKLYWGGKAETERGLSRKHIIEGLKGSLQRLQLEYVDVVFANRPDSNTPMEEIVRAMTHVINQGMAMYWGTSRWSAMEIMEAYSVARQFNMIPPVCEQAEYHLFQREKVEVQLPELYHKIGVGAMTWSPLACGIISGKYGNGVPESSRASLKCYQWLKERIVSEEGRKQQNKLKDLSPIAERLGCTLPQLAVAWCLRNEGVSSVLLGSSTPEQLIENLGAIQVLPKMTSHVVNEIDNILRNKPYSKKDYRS
UniProt P22460: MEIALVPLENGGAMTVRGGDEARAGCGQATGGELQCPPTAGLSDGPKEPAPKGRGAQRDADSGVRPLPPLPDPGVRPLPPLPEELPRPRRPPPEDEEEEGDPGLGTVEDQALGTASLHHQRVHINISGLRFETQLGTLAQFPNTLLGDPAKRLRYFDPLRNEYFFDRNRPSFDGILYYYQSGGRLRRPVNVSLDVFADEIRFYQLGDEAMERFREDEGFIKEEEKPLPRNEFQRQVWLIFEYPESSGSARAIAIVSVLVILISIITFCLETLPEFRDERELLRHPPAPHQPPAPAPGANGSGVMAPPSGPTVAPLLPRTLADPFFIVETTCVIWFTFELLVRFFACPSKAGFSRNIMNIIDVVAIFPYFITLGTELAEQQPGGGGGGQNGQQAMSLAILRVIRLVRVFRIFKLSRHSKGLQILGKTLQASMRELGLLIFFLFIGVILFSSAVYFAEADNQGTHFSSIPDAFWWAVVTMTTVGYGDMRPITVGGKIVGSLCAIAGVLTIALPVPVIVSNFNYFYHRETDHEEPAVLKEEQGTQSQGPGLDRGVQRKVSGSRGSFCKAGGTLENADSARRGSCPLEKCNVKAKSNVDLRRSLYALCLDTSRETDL

Results are given in words; binding and its absence hold for the method and conditions named. In cells and extracts the contact can be indirect. Binding calls can cover weak binding; strength is not graded here. Where a sequence is shown, tags or fusion partners need not be part of it.

In the case of “KV1.5 channel (from UniProt P22460 1-613)”, the binding entry is “binds”.

B1: Lgi3, FLAG-tagged (protein, UniProt Q8N145 31-548)
chain: KRPPKTPPCPPSCSCTRDTAFCVDSKAVPRNLPSEVISLTLVNAAFSEIQDGAFSHLPLLQFLLLNSNKFTLIGDNAFTGLSHLQYLFIENNDIWALSKFTFRGLKSLTHLSLANNNLQTLPRDIFRPLDILNDLDLRGNSLNCDCKVKWLVEWLAHTNTTVAPIYCASPPRFQEHKVQDLPLREFDCITTDFVLYQTLAFPAVSAEPFLYSSDLYLALAQPGVSACTILKWDYVERQLRDYDRIPAPSAVHCKPMVVDSQLYVVVAQLFGGSYIYHWDPNTTRFTRLQDIDPQRVRKPNDLEAFRIDGDWYFAVADSSKAGATSLYRWHQNGFYSHQALHPWHRDTDLEFVDGEGKPRLIVSSSSQAPVIYQWSRTQKQFVAQGEVTQVPDAQAVKHFRAGRDSYLCLSRYIGDSKILRWEGTRFSEVQALPSRGSLALQPFLVGGRRYLALGSDFSFTQIYQWDEGRQKFVRFQELAVQAPRAFCYMPAGDAQLLLAPSFKGQTLVYRHIVVDLSA
With B1, the binding entry is given as “binds”.
